Our source for the binding values is paper PMC7196306.

Protein sequences, listed by entry. Tags and fused reporters are not part of them.
UniProt F7F8L9: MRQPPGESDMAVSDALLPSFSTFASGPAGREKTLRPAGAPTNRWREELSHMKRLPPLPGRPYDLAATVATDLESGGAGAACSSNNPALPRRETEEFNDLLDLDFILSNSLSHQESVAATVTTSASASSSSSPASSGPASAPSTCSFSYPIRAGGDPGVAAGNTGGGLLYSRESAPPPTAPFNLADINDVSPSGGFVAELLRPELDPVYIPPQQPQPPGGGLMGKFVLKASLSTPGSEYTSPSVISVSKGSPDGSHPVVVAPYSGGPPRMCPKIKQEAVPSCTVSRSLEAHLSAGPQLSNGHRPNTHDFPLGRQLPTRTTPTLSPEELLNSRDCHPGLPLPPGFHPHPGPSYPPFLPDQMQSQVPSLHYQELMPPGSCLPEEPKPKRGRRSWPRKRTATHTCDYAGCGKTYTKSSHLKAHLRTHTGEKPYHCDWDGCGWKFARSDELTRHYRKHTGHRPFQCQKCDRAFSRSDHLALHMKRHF
UniProt O70437: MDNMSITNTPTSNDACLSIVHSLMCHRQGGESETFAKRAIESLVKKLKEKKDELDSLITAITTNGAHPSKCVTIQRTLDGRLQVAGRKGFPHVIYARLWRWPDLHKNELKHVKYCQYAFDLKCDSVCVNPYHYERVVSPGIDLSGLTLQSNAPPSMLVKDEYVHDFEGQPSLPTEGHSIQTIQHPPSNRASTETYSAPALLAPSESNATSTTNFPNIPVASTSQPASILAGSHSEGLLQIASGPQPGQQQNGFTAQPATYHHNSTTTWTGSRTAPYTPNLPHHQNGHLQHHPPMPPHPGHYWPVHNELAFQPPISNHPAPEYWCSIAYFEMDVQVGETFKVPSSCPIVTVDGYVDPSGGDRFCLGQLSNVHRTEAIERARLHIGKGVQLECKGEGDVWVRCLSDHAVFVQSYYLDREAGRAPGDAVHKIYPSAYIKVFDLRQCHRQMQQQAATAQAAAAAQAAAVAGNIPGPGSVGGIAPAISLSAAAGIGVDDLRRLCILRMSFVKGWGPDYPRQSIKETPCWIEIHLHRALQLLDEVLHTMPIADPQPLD

Results are given in words; binding and its absence hold for the method and conditions named. Binding seen in cells or lysates may run through a third protein. Some results given as binding are weak or reduced against the parent protein; the word gives no strength.

The target of the assay is Krüppel-like factor 4 (rat (endogenous in PASMCs)) (UniProt F7F8L9). Briefly: co-IP; cross co-immunoprecipitation from lysates of PASMCs transfected with Ad-Myadm or Myadm-siRNA: anti-KLF4 resin, blot for KLF4 and SMAD4; anti-SMAD4 resin, blot for SMAD4 and KLF4.

In the case of SMAD4 (from UniProt O70437 1-552), the binding entry is given as “binds”.
